Results deposited as PubChem BioAssay AID1159578 (Peter MacCallum Cancer Centre, 2015).
This is an unselected part of about 18,000 deposited reagents. About 1,030 of all reagents (5.7%) count as active. 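Inactive calls also include pools with fewer than 3300 nuclei, whose migration was not assessed.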 Raw values vary from plate to plate and are shown uncorrected. Not all columns of the deposit are shown. Reagent sequences are not shown.

- Test: 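Knock-downs that alter how fast lymphatic endothelial cells migrate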 (primary screen)
- Cells: human lymphatic endothelial cells
- Reagent: siRNA pool against human genes, 40 nM
- Duration: 48 h after transfection
- Detection: 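Cells stained with dye and imaged after a scratch; covered wound area and nuclei counted, duplicates averaged, migration set against mock wells and turned into a robust z-score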
- Scale: migration robust z-score: higher = faster migration into the scratch; nuclei per well: higher = more cells in the well
- Rule for the call: 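Pools averaging fewer than 3300 nuclei are never called; remaining pools count as changed when migration robust z lies outside -2 to 2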
- Meaning of the calls: active = migration changed; inactive = no migration change, or too few cells

What did the screen give for VILL?
migration robust z-score: 1.12; nuclei per well, duplicate mean: 4860; Outcome: inactive

For AQP3, how do the results read?
migration robust z-score: -0.62; nuclei per well, duplicate mean: 3151; Outcome: inactive

For MRPL18, what was measured?
migration robust z-score: -0.47; nuclei per well, duplicate mean: 8048; Outcome: inactive

Which result is listed for PRKCI?
migration robust z-score: -0.68; nuclei per well, duplicate mean: 4439; Outcome: inactive

How did the screen score NMRAL1?
migration robust z-score: -1.8; nuclei per well, duplicate mean: 3944; Outcome: inactive

How did the screen score MAPT?
migration robust z-score: -1.48; nuclei per well, duplicate mean: 5681; Outcome: inactive

With MYOM2, what does the deposit list?
migration robust z-score: -0.05; nuclei per well, duplicate mean: 5795; Outcome: inactive

What is on record for SLC4A1?
migration robust z-score: 0.73; nuclei per well, duplicate mean: 5830; Outcome: inactive

With AGPAT3, what was measured?
migration robust z-score: -1.42; nuclei per well, duplicate mean: 4401; Outcome: inactive

With CADPS, how do the results read?
migration robust z-score: 0.3; nuclei per well, duplicate mean: 5005; Outcome: inactive

How did the screen score LIM2?
migration robust z-score: -1.31; nuclei per well, duplicate mean: 3838; Outcome: inactive

For TEX26, what does the deposit list?
migration robust z-score: -0.38; nuclei per well, duplicate mean: 5499; Outcome: inactive

What is on record for USP16?
migration robust z-score: -2.18; nuclei per well, duplicate mean: 4284; Outcome: active

What did the screen give for PSMA3?
migration robust z-score: 0.52; nuclei per well, duplicate mean: 5472; Outcome: inactive

Limited to “nuclei per well, duplicate mean”, for 2 of the entries above:
AGPAT3	4401
CADPS	5005
